Laboratory results reported in the supplement of paper PMC10849652.
This is one part of the list. Residues, ends and D or L forms follow the SMILES beside them. *: point of attachment. Cbz = O=C(OCc1ccccc1)*

Amino acid sequences for entries named in this document (tags omitted). A change or cut given only in a name is not applied to a line headed by its entry.
UniProt Q96PE7: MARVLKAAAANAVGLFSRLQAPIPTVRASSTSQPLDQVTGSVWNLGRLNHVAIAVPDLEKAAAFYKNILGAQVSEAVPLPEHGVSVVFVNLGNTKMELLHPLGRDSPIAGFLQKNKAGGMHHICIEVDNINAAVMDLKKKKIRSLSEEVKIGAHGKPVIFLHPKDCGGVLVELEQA
MCTS2P, A0A3B3IRV3, UniProt A0A3B3IRV3, whole entry, looked up: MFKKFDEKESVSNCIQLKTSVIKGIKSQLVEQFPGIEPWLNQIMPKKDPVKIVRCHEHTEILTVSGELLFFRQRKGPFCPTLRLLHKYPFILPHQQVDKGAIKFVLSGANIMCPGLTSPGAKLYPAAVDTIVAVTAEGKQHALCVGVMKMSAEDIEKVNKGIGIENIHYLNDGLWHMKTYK
UniProt Q6P0Q8: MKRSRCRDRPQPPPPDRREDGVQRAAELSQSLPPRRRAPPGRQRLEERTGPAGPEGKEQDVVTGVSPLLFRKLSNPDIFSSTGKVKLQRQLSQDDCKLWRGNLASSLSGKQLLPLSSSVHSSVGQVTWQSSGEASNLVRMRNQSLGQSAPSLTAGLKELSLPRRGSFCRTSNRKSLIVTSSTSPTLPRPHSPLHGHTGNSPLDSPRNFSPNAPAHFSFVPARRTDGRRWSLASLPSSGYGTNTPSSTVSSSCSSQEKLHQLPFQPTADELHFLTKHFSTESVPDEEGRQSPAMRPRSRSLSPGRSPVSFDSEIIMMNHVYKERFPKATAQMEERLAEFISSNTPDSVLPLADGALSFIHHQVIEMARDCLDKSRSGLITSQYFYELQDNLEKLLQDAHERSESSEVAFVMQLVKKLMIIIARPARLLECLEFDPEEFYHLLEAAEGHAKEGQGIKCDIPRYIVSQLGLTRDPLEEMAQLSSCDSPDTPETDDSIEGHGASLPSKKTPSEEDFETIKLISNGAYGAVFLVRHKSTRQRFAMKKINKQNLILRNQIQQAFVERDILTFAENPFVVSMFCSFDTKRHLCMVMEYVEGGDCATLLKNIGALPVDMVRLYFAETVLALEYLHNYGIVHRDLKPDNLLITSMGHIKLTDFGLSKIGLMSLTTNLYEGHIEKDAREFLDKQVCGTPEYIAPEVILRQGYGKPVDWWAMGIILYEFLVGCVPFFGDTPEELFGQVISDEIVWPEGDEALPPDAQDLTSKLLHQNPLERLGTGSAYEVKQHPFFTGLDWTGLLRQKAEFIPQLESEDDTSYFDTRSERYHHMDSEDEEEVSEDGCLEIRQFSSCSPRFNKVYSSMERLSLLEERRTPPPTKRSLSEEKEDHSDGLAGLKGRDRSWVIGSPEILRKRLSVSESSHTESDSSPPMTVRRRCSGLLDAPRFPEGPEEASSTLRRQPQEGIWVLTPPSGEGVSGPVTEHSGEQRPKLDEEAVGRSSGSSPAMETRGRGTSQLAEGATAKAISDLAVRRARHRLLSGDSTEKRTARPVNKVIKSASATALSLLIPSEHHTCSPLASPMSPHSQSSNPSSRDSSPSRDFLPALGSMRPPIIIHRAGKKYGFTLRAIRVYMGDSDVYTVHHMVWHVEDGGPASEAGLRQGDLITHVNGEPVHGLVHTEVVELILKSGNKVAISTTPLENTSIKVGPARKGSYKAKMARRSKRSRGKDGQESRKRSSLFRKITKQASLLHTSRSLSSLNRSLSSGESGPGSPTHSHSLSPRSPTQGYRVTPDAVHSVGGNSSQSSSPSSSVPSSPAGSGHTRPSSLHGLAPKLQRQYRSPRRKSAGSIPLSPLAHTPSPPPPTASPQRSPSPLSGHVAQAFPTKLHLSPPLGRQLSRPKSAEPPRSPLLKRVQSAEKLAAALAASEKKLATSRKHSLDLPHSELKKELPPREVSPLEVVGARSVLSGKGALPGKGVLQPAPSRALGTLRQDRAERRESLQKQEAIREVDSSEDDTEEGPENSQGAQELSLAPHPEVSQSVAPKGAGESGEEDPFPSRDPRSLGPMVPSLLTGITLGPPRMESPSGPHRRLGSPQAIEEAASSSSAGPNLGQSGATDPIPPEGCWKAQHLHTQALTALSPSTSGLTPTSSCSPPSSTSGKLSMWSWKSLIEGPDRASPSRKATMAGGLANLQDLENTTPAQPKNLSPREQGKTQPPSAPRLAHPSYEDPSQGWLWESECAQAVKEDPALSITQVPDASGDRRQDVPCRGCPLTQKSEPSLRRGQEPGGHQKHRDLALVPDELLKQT
UniProt Q06413, whole entry, looked up: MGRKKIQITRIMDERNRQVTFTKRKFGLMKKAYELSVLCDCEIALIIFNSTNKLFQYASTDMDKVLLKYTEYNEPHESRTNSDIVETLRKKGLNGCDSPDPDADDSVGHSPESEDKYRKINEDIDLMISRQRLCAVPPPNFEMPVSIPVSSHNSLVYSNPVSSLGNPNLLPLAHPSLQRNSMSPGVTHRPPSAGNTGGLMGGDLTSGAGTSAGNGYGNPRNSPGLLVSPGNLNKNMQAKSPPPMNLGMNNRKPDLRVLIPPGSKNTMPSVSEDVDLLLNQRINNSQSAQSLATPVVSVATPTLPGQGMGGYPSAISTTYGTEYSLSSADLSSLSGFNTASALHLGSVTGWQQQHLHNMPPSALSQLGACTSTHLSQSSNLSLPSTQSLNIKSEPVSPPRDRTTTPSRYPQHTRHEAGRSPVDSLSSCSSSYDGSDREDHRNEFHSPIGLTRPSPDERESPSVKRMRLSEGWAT
UniProt Q6ZN04: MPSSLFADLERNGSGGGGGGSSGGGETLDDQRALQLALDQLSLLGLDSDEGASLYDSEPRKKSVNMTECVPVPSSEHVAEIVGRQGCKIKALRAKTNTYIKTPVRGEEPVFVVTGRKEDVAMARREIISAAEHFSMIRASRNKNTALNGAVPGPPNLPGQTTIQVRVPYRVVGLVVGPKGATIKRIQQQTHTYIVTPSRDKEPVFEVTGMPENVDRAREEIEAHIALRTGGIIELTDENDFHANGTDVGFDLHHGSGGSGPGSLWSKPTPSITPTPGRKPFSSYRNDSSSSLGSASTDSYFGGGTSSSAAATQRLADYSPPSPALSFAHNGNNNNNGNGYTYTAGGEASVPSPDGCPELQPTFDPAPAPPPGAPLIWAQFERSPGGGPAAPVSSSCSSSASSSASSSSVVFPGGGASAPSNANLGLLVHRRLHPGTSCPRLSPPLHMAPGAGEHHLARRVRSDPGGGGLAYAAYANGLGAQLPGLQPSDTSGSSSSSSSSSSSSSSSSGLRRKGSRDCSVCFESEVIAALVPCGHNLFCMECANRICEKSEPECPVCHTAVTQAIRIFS
UniProt Q9NX70: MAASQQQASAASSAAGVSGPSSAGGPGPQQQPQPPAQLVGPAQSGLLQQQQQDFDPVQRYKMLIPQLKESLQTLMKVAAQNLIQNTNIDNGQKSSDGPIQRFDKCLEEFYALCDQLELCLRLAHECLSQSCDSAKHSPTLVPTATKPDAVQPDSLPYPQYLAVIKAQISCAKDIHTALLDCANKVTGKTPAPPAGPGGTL
UniProt Q6NUT3: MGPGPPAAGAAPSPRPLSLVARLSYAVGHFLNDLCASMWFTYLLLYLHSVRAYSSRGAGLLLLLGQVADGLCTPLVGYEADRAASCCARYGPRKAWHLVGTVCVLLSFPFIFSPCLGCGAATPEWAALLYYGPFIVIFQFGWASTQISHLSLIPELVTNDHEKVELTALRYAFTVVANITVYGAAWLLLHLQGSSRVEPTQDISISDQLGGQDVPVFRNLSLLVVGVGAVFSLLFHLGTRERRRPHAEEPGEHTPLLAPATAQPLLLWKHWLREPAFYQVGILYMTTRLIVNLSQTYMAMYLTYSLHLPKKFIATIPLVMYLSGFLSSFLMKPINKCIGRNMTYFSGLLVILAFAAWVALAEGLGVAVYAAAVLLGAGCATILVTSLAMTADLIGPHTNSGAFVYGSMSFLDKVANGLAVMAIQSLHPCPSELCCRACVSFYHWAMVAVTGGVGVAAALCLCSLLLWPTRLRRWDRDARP
UniProt Q71F56: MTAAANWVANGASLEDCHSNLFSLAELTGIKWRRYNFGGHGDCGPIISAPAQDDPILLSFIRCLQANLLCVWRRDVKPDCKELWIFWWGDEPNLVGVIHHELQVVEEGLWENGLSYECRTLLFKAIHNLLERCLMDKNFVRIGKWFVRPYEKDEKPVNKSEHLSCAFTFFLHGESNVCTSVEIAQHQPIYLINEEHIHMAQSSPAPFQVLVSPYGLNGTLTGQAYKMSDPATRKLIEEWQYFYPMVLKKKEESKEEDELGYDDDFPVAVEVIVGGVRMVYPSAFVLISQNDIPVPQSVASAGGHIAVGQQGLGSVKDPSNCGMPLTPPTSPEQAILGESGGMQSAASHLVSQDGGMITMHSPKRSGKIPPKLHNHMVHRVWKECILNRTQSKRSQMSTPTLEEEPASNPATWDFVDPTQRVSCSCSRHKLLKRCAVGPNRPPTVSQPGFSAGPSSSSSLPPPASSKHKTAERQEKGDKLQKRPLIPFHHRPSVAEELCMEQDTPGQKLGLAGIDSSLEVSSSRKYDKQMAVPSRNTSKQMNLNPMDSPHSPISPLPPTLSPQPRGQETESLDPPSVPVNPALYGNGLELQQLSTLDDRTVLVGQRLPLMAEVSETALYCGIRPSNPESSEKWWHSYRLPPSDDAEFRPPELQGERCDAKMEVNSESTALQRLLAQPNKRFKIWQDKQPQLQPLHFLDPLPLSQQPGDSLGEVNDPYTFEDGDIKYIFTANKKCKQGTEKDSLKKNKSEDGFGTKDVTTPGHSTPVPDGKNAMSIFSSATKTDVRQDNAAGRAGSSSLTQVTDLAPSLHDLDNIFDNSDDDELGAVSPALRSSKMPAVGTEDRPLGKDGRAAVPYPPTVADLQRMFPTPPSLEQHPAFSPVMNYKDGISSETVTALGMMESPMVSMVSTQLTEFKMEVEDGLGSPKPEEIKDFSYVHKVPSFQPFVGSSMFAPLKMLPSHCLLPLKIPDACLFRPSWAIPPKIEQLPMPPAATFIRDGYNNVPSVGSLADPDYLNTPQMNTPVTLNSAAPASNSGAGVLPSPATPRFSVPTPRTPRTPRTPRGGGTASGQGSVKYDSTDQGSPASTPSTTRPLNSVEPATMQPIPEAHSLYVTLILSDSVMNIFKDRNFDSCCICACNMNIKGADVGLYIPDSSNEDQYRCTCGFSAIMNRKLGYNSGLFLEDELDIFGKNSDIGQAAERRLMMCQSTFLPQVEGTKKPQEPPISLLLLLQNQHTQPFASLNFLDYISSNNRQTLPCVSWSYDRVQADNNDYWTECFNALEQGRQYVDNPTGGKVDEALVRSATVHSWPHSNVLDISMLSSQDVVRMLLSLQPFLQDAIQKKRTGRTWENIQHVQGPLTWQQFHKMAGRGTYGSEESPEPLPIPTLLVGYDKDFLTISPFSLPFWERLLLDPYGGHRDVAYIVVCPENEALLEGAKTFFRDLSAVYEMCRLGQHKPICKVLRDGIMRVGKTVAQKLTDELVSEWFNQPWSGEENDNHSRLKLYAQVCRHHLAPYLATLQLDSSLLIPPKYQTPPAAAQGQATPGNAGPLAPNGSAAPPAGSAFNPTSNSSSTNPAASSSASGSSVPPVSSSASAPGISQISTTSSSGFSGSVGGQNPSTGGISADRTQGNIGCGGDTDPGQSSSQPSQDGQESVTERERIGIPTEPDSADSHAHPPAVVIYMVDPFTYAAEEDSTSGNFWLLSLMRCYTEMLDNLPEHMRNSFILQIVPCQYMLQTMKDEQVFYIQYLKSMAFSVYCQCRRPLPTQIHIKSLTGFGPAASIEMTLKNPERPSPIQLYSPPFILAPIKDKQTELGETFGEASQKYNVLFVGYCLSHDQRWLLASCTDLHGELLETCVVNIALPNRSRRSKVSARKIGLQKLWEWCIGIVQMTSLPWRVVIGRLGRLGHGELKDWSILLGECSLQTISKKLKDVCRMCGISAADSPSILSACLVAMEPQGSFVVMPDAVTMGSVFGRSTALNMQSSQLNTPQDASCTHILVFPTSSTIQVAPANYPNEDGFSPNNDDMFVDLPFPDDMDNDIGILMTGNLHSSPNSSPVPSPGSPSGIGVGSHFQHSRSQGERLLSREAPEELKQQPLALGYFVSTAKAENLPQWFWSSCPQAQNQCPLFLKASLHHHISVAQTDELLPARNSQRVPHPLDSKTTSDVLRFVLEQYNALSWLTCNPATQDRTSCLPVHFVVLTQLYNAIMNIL
UniProt Q9UBB5, whole entry, looked up: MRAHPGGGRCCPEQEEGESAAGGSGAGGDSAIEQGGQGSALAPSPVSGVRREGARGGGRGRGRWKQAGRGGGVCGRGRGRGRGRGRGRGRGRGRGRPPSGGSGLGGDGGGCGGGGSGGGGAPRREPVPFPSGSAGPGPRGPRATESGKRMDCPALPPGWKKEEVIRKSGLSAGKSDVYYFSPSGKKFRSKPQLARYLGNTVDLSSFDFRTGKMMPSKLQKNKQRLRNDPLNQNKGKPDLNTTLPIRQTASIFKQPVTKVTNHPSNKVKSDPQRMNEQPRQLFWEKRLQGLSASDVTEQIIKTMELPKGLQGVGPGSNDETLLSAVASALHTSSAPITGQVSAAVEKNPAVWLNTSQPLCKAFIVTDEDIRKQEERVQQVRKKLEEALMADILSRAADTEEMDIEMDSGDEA

Key:
Experiment in all cases: log2 fold change, soluble protein after heating vs DMSO (PISA); higher = thermal stabilisation; K562 cells, 10 uM, 30 min; active = over 0.2 and 3.5 SD of the protein, either way, in both replicates (recomputed)
ibrutinib = compound: C=CC(=O)N1CCC[C@@H](n2nc(-c3ccc(Oc4ccccc4)cc3)c3c(N)ncnc32)C1 [ibrutinib]
Outline: (§1)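 Values are thermal stability changes relative to control samples and are taken from duplicates. They are stated as log2 fold changes. Before quantification by TMTpro 16plex LC-MS/MS with equalised channel sums, K562 cells at 2×10^6 cells/mL were treated with 10 μM compound for 30 min, heated in aliquots for 3 min across 48°C-58°C, pooled, extracted in PBS with 0.5% NP-40 at 4°C, and centrifuged at 21,000xg for 90 min to give the soluble supernatant.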

[1] = compound: CC(=O)c1cnc2ccc(-c3cc(Cl)c(O)c(Cl)c3)nc2c1N[C@H]1CC[C@H](CN(C)C)CC1
Outline: as §1

ralimetinib = compound: CC(C)(C)Cn1c(N)nc2ccc(-c3[nH]c(C(C)(C)C)nc3-c3ccc(F)cc3)nc21 [ralimetinib]
Outline: as §1

[2] = compound: CC(C)(O)CC(=O)NCCn1ccc2ncnc(Nc3ccc(Oc4cccc(C(F)(F)F)c4)c(Cl)c3)c21
Outline: as §1

[3] = compound: CC(C)C1=C2N=C(C=C(N2N=C1)NCC3=CC=CC=C3)NCCCCCCN
Outline: as §1

[4] = compound: CC(C)C[C@@H](C=O)NC(=O)[C@H](CC(C)C)NC(=O)[C@H](CC(C)C)NC(=O)OCc1ccccc1
Outline: as §1

[5] = compound: CC1=C(C(CC(=O)N1)C2=CC=C(C=C2)C(F)(F)F)C(=O)NC3=C(C=C4C(=C3)C=NN4)F
Outline: as §1

[6] = compound: CC1=C(C2=C(C=C1)C(=O)C3=CC=CC=C3N2CCCN)C
Outline: as §1

[7] = compound: CC1=C(C=C(C=C1)NC(=O)C2=CC(=CC=C2)C(C)(C)C#N)NC3=CC4=C(C=C3)N=CN(C4=O)C
Outline: as §1

[8] = compound: CC1=C(C=C(C=C1)NC(=O)C2=CC(=CC=C2)N(C)C)NC(=O)C3=CC=C(C=C3)O
Outline: as §1

[9] = compound: CC1=CC=C(C=C1)SC2=C3C=C(SC3=CN=C2)C(=O)N
Outline: as §1

Nexturastat A = compound: CCCCN(Cc1ccc(C(=O)NO)cc1)C(=O)Nc1ccccc1 [Nexturastat A]
Outline: as §1

vemurafenib = compound: CCCS(=O)(=O)Nc1ccc(F)c(C(=O)c2c[nH]c3ncc(-c4ccc(Cl)cc4)cc23)c1F [vemurafenib]
Outline: as §1

[10] = compound: CCCS(=O)(=O)Nc1ccc(F)c(C(=O)c2c[nH]c3ncc(Cl)cc23)c1F
Outline: as §1

[11] = compound: CCCc1cc(C)[nH]c(=O)c1CNC(=O)c1cc(-c2ccnc(N3CCN(C)CC3)c2)cc2c1cnn2C(C)C
Outline: as §1

givinostat = compound: CCN(CC)Cc1ccc2cc(COC(=O)Nc3ccc(C(=O)NO)cc3)ccc2c1 [givinostat]
Outline: as §1

barasertib = compound: CCN(CCCOc1ccc2c(Nc3cc(CC(=O)Nc4cccc(F)c4)[nH]n3)ncnc2c1)CCOP(=O)(O)O [barasertib]
Outline: as §1

IRAK-1-4 Inhibitor I = compound: C1COCCN1CCN2C3=CC=CC=C3N=C2NC(=O)C4=CC(=CC=C4)[N+](=O)[O-] [IRAK-1-4 Inhibitor I]
Outline: as §1

pinometostat = compound: CC(C)N(C[C@H]1O[C@@H](n2cnc3c(N)ncnc32)[C@H](O)[C@@H]1O)[C@H]1C[C@@H](CCc2nc3cc(C(C)(C)C)ccc3[nH]2)C1 [pinometostat]
Outline: as §1

[12] = compound: CC1=NC(=CC=C1)C2=C(N=C(N2)C(C)(C)C)C3=CC4=NC=CN=C4C=C3
Outline: as §1

Measured: log2 fold change

MCEE (UniProt Q96PE7)
inactive: ibrutinib 0.021 | [1] 0.05 | ralimetinib 0.083 | [2] -0.004 | [3] 0.029 | [4] 0.026 | [5] 0.024 | [6] 0.085 | [7] -0.017 | [8] 0.014 | [9] 0.04 | Nexturastat A 0.014 | vemurafenib -0.178 | [10] -0.033 | [11] -0.016 | givinostat -0.024 | barasertib 0.004

METTL26 (UniProt Q96S19)
inactive: ibrutinib -0.081 | [3] 0.067 | [5] -0.192 | [9] 0 | [10] 0.038 | [11] -0.017 | givinostat -0.024 | barasertib -0.349

MCTS2P, A0A3B3IRV3
inactive: [5] 0.021

METTL15 (UniProt A6NJ78)
inactive: ibrutinib 0.049 | [1] -0.1 | [2] -0.636 | [6] 0.203 | Nexturastat A -0.014 | barasertib -0.07

MEF2A isoform 2 (UniProt Q02078)
inactive: IRAK-1-4 Inhibitor I -0.004 | pinometostat -0.031 | [5] 0.141 | [9] 0.006 | [12] 0.036 | vemurafenib 0.008 | [10] 0.009 | [11] 0.103

MEGF10 (UniProt Q96KG7)
inactive: [6] -0.176 | [9] -0.112 | [10] -0.032

MAST2 (UniProt Q6P0Q8)
inactive: ralimetinib -0.188 | [4] 0.074 | [8] -0.022

MBTPS2 (UniProt O43462)
inactive: IRAK-1-4 Inhibitor I -0.166 | ralimetinib -0.049 | [2] 0.034 | [3] -0.037 | [4] 0.073 | pinometostat 0.047 | [5] 0 | [6] 0.065 | [8] -0.002 | [9] 0.023 | [12] -0.046 | Nexturastat A -0.075 | vemurafenib -0.078 | [10] 0.1 | givinostat 0.03

MEF2C isoform 2 (UniProt Q06413)
inactive: [2] -0.141 | [6] 0.033 | Nexturastat A -0.14

MEX3B (UniProt Q6ZN04)
inactive: ibrutinib 0.046 | ralimetinib -0.072 | [3] 0.076 | [4] 0.251 | [5] 0.06 | [6] 0.118 | [8] -0.075 | [9] 0.204 | [10] 0.187 | givinostat 0.098 | barasertib -0.009

MDK (UniProt P21741)
inactive: ibrutinib 0.012 | [1] 0.212 | [3] 0.242 | [5] -0.067 | [6] -0.481 | [7] 0.166 | [9] -0.108 | [10] -0.154 | [11] 0.03 | givinostat -0.392 | barasertib -0.111

MEGF9 (UniProt Q9H1U4)
inactive: ibrutinib 0.113 | [3] 0.243 | [6] 0.043 | [7] -0.083 | givinostat -0.041 | barasertib 0.024

2 records drawn at random from those above, as already listed:
METTL15 (UniProt A6NJ78)
inactive: ibrutinib 0.049 | [1] -0.1 | [2] -0.636 | [6] 0.203 | Nexturastat A -0.014 | barasertib -0.07

MDK (UniProt P21741)
inactive: ibrutinib 0.012 | [1] 0.212 | [3] 0.242 | [5] -0.067 | [6] -0.481 | [7] 0.166 | [9] -0.108 | [10] -0.154 | [11] 0.03 | givinostat -0.392 | barasertib -0.111

(continued)

METTL2B (UniProt Q6P1Q9)
inactive: IRAK-1-4 Inhibitor I -0.134 | [1] -0.073 | ralimetinib 0.189 | [2] -0.091 | [4] 0.216 | pinometostat 0.291 | [7] -0.079 | [8] -0.033 | [12] 0.062 | Nexturastat A 0.112 | vemurafenib 0.031 | [11] 0.185

MFSD1 isoform 6 (UniProt Q9H3U5)
active: [3] -0.427
inactive: ibrutinib 0.017 | [1] 0.025 | ralimetinib -0.172 | [2] 0.055 | [4] 0.043 | [6] 0.08 | [7] 0.056 | [8] -0.008 | [9] -0.046 | Nexturastat A -0.106 | vemurafenib -0.053 | [10] -0.059 | [11] 0.021 | givinostat 0.008 | barasertib 0.041

MED29 (UniProt Q9NX70)
inactive: [1] -0.215 | [3] -0.038 | [9] -0.075 | [10] 0.131 | [11] 0.025 | givinostat -0.076

MFSD12 isoform 3 (UniProt Q6NUT3)
inactive: [1] -0.002 | [6] -0.066 | [7] 0.115 | givinostat -0.022
active: [3] -0.474

MED13L (UniProt Q71F56)
inactive: [2] -0.052 | [3] -0.046 | [9] -0.121 | Nexturastat A 0.194 | vemurafenib -0.053 | [10] 0.086 | givinostat 0.033

MBD2 (UniProt Q9UBB5)
inactive: ibrutinib -0.036 | [1] -0.201 | ralimetinib 0.076 | [2] 0.005 | [3] -0.144 | [4] -0.154 | [5] -0.034 | [6] -0.155 | [7] 0.069 | [8] 0.053 | [9] -0.011 | Nexturastat A 0.163 | vemurafenib 0.033 | [10] 0.068 | [11] 0.198 | givinostat 0.2 | barasertib -0.042
